Reference: article doi:10.1101/2025.08.27.672522
Where two headings read alike, the source gives them in different places. Results are given in words; binding and its absence hold for the method and conditions named. For part of these data: In cells and extracts the contact can be indirect. Some entries that bind do so weakly or less than the wild type. Tags and fused reporters may be left off the sequences shown.

Chains of the proteins cited; added tags and fusions are not shown.
UniProt Q39026: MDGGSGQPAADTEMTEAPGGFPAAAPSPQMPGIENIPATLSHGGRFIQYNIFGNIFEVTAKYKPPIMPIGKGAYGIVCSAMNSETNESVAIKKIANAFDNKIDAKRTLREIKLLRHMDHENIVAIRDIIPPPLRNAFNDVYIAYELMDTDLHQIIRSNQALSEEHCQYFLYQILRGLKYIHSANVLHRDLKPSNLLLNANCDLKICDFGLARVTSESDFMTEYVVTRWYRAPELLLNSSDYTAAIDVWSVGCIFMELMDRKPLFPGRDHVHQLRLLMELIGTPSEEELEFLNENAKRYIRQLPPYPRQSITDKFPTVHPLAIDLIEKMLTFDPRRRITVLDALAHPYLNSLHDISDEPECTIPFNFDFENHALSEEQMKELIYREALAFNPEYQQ

What was measured:
[1] = target: T1, MAX2, BiFC fusion (Arabidopsis thaliana) (UniProt Q9SIM9); test: split reporter
T1 sequence: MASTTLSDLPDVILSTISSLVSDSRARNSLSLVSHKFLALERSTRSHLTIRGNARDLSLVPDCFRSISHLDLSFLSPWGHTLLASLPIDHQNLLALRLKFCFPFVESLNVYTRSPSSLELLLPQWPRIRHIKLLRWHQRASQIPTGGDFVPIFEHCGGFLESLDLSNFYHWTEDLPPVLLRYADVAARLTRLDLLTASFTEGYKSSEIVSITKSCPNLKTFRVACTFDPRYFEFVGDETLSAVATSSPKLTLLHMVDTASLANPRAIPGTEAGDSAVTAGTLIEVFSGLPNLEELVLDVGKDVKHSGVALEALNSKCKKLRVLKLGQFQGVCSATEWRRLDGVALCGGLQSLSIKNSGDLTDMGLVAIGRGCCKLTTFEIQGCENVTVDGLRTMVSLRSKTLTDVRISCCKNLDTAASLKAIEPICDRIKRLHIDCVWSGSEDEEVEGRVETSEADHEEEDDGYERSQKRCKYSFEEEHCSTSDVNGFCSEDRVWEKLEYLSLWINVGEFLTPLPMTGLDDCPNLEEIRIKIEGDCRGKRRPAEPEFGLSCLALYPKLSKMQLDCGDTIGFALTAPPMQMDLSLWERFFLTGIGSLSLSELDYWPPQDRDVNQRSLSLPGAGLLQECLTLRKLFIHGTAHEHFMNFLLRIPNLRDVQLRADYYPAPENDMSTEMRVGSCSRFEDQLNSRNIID

[2] = target: T1, MAX2, BiFC fusion (Arabidopsis thaliana); test: split reporter; remark: listed apart in the source
[3] = target: T2, MAX2-Myc (MAX2-10xMyc) from transgenic Arabidopsis (Arabidopsis thaliana) (UniProt Q9SIM9); test: co-IP
T2 sequence: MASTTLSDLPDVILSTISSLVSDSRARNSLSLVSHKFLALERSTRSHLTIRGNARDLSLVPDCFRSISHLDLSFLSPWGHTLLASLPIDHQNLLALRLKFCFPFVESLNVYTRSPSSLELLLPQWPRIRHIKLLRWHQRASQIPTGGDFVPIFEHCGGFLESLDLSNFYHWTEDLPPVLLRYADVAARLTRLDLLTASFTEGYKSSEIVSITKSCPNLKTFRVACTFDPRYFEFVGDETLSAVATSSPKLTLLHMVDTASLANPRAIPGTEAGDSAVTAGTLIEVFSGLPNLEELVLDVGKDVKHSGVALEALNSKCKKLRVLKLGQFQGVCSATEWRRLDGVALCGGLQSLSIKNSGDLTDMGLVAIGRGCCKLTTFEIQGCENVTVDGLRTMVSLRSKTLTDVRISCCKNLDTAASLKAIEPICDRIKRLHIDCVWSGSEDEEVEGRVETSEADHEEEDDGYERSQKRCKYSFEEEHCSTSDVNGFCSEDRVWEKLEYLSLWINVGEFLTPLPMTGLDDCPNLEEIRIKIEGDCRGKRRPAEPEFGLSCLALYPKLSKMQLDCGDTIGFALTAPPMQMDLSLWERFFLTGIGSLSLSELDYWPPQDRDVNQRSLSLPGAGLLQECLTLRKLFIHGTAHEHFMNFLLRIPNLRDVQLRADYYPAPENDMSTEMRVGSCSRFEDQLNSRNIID

[4] = target: T3, MORE AXILLARY GROWTH2 (MAX2), yeast two-hybrid fusion (Arabidopsis thaliana) (UniProt Q9SIM9); test: two-hybrid
T3 sequence: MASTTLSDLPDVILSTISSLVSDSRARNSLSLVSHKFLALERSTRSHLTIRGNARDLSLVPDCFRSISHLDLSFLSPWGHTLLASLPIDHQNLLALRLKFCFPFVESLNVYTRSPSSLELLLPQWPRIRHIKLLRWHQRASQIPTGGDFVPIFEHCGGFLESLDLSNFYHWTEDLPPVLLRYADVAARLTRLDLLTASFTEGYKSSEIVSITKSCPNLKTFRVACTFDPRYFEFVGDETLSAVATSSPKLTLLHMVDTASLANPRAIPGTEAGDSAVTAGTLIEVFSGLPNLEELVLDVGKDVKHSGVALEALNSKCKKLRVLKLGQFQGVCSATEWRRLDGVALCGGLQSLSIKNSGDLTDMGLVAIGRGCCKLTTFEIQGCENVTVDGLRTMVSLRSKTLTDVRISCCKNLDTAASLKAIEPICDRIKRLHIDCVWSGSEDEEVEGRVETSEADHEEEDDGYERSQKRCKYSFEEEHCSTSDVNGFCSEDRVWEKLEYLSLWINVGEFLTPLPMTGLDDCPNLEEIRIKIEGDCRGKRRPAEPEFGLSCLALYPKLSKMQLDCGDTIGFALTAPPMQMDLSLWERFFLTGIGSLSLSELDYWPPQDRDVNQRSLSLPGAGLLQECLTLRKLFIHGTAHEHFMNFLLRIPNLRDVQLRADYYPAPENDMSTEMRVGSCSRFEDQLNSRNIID

[5] = target: MPK6, yeast two-hybrid fusion (Arabidopsis thaliana) (UniProt Q39026); test: two-hybrid
[6] = target: T4, MPK3, yeast two-hybrid fusion (Arabidopsis thaliana) (UniProt Q39023); test: two-hybrid
T4 sequence: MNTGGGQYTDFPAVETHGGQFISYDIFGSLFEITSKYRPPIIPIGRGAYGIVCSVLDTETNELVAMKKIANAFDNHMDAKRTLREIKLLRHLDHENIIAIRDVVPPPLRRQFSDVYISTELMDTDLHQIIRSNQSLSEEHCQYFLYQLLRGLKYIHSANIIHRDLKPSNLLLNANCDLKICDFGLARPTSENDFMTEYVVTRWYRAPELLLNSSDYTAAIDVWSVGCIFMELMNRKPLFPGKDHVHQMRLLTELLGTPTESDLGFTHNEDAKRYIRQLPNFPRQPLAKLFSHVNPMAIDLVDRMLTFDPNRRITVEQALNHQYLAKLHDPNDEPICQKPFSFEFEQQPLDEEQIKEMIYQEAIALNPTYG

In the case of “BRC1^S34D,S65D (phospho-mimic), BiFC fusion (from UniProt A1YKT1 1-433)”, the binding [1] is reported as “no binding”.

For “BRC1^S34A,S65A (phospho-dead), BiFC fusion (from UniProt A1YKT1 1-433)”, the binding [1] was “binds”.

B1: BRC1-EYFP^C (BiFC fusion) (protein, UniProt A1YKT1 1-433)
chain: MNNNIFSTTTTINDDYMLFPYNDHYSSQPLLPFSPSSSINDILIHSTSNTSNNHLDHHHQFQQPSPFSHFEFAPDCALLTSFHPENNGHDDNQTIPNDNHHPSLHFPLNNTIVEQPTEPSETINLIEDSQRISTSQDPKMKKAKKPSRTDRHSKIKTAKGTRDRRMRLSLDVAKELFGLQDMLGFDKASKTVEWLLTQAKPEIIKIATTLSHHGCFSSGDESHIRPVLGSMDTSSDLCELASMWTVDDRGSNTNTTETRGNKVDGRSMRGKRKRPEPRTPILKKLSKEERAKARERAKGRTMEKMMMKMKGRSQLVKVVEEDAHDHGEIIKNNNRSQVNRSSFEMTHCEDKIEELCKNDRFAVCNEFIMNKKDHISNESYDLVNYKPNSSFPVINHHRSQGAANSIEQHQFTDLHYSFGAKPRDLMHNYQNMY
B1 was tested, and the binding [2] was “binds”.

B2: BRC1-HA (BRC1-3xHA) from transgenic Arabidopsis (protein, UniProt A1YKT1 1-433)
chain: MNNNIFSTTTTINDDYMLFPYNDHYSSQPLLPFSPSSSINDILIHSTSNTSNNHLDHHHQFQQPSPFSHFEFAPDCALLTSFHPENNGHDDNQTIPNDNHHPSLHFPLNNTIVEQPTEPSETINLIEDSQRISTSQDPKMKKAKKPSRTDRHSKIKTAKGTRDRRMRLSLDVAKELFGLQDMLGFDKASKTVEWLLTQAKPEIIKIATTLSHHGCFSSGDESHIRPVLGSMDTSSDLCELASMWTVDDRGSNTNTTETRGNKVDGRSMRGKRKRPEPRTPILKKLSKEERAKARERAKGRTMEKMMMKMKGRSQLVKVVEEDAHDHGEIIKNNNRSQVNRSSFEMTHCEDKIEELCKNDRFAVCNEFIMNKKDHISNESYDLVNYKPNSSFPVINHHRSQGAANSIEQHQFTDLHYSFGAKPRDLMHNYQNMY
In the case of B2, the binding [3] is reported as “binds”.

B3: BRC1^S34D,S65D (phospho-mimic), yeast two-hybrid fusion (protein, UniProt A1YKT1 1-433)
chain: MNNNIFSTTTTINDDYMLFPYNDHYSSQPLLPFDPSSSINDILIHSTSNTSNNHLDHHHQFQQPDPFSHFEFAPDCALLTSFHPENNGHDDNQTIPNDNHHPSLHFPLNNTIVEQPTEPSETINLIEDSQRISTSQDPKMKKAKKPSRTDRHSKIKTAKGTRDRRMRLSLDVAKELFGLQDMLGFDKASKTVEWLLTQAKPEIIKIATTLSHHGCFSSGDESHIRPVLGSMDTSSDLCELASMWTVDDRGSNTNTTETRGNKVDGRSMRGKRKRPEPRTPILKKLSKEERAKARERAKGRTMEKMMMKMKGRSQLVKVVEEDAHDHGEIIKNNNRSQVNRSSFEMTHCEDKIEELCKNDRFAVCNEFIMNKKDHISNESYDLVNYKPNSSFPVINHHRSQGAANSIEQHQFTDLHYSFGAKPRDLMHNYQNMY
B3 was tested, and the binding [4] was “no binding”.

B4: BRANCHED1 (BRC1), yeast two-hybrid fusion (protein, UniProt A1YKT1 1-433)
chain: MNNNIFSTTTTINDDYMLFPYNDHYSSQPLLPFSPSSSINDILIHSTSNTSNNHLDHHHQFQQPSPFSHFEFAPDCALLTSFHPENNGHDDNQTIPNDNHHPSLHFPLNNTIVEQPTEPSETINLIEDSQRISTSQDPKMKKAKKPSRTDRHSKIKTAKGTRDRRMRLSLDVAKELFGLQDMLGFDKASKTVEWLLTQAKPEIIKIATTLSHHGCFSSGDESHIRPVLGSMDTSSDLCELASMWTVDDRGSNTNTTETRGNKVDGRSMRGKRKRPEPRTPILKKLSKEERAKARERAKGRTMEKMMMKMKGRSQLVKVVEEDAHDHGEIIKNNNRSQVNRSSFEMTHCEDKIEELCKNDRFAVCNEFIMNKKDHISNESYDLVNYKPNSSFPVINHHRSQGAANSIEQHQFTDLHYSFGAKPRDLMHNYQNMY
In the case of B4, the binding [5] is reported as “no binding”, the binding [4] is reported as “binds” and the binding [6] is reported as “no binding”.

B5: BRC1^S34A,S65A (phospho-dead), yeast two-hybrid fusion (protein, UniProt A1YKT1 1-433)
chain: MNNNIFSTTTTINDDYMLFPYNDHYSSQPLLPFAPSSSINDILIHSTSNTSNNHLDHHHQFQQPAPFSHFEFAPDCALLTSFHPENNGHDDNQTIPNDNHHPSLHFPLNNTIVEQPTEPSETINLIEDSQRISTSQDPKMKKAKKPSRTDRHSKIKTAKGTRDRRMRLSLDVAKELFGLQDMLGFDKASKTVEWLLTQAKPEIIKIATTLSHHGCFSSGDESHIRPVLGSMDTSSDLCELASMWTVDDRGSNTNTTETRGNKVDGRSMRGKRKRPEPRTPILKKLSKEERAKARERAKGRTMEKMMMKMKGRSQLVKVVEEDAHDHGEIIKNNNRSQVNRSSFEMTHCEDKIEELCKNDRFAVCNEFIMNKKDHISNESYDLVNYKPNSSFPVINHHRSQGAANSIEQHQFTDLHYSFGAKPRDLMHNYQNMY
With B5 the binding [4] was “binds”.
